Data as given in PubChem BioAssay AID1671192 (National Center for Advancing Translational Sciences (NCATS), 2021).
The inconclusive results got no clear call from the source; some entries with a clear call stand among them for comparison. Potencies beside an inconclusive call are fits to weak or partial responses and may not hold up. The source made the active and inactive calls. The call rests on the fitted dose curve; in most records, active means well fitted curve in the direction sought with a large enough effect; inconclusive means small, poorly fitted or top-dose-only effect, or another doubt; inactive means no such curve, though single readings can be large or run the other way.

By UniProt entry, the sequences of proteins in these tests, tags left out. Where a name states a change or a piece, a line headed by the entry shows the natural chain unless it says otherwise.
UniProt P16050: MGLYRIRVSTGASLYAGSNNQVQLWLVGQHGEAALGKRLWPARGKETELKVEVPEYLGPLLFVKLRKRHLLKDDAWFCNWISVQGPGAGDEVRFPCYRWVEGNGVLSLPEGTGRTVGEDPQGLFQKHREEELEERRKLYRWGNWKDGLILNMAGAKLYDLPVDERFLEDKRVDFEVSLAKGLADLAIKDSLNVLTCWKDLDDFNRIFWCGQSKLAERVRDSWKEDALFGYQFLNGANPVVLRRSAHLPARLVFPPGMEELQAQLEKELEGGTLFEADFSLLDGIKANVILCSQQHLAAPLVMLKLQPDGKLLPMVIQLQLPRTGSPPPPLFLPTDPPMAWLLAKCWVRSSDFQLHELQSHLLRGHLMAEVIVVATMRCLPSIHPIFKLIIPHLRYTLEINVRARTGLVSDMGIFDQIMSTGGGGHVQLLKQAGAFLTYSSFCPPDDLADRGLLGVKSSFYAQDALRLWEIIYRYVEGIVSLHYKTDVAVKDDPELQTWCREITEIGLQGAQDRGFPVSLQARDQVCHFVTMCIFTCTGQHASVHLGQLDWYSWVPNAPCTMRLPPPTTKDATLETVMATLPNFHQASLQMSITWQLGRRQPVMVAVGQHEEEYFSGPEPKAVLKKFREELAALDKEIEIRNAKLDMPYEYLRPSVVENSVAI

target: Polyunsaturated fatty acid lipoxygenase ALOX15 (Homo sapiens) (UniProt P16050); experiment: Counterscreen qHTS for inhibitors of human arachidonate 12S-lipoxygenase (ALOX12): ALOX15 Assay; settings: purified ALOX15 enzyme activity; activity change, negative = inhibition: at 110 µM (top of the series) unless noted; on activity change, negative = inhibition: 0% is about no effect
Outline: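 Purified human ALOX15 (15hLO-1) at 40 nM in 25 mM HEPES, 0.01% Triton X-100, pH 7.5, preincubated with compound 15 min at RT. Then 50 uM arachidonic acid for 30 min; hydroperoxide detected by Fe-xylenol orange as the 573/405 nm absorbance ratio.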

Row | Compound | Potency | activity change, negative = inhibition
1 | CN1CC(=O)N(C2CCCC2)Cc2c(NC3CCNCC3)ncnc21 | inconclusive: 6.15 µM [inhibitor, full curve, poor fit] | 
2 | C[S+](=O)([O-])N1CCCC(c2nnc3n2CCNC3)C1 (stereo not given) |  | inactive: -4.91% [at 146 µM]
3 | CN1CC(=O)N(C2CCCNC2)Cc2c(NCC(C)(C)C)ncnc21 (stereo not given) |  | inactive: -8.17%
4 | CS(=O)(=O)N1CCn2cc(C(=O)Nc3ccc(Cl)cc3Cl)nc2C1 | inconclusive: 124 µM [inhibitor, single point] | 
5 | COc1ccc(C(=O)N2Cc3ccccc3CC23CCCN(C(=O)CCCN)C3)cc1 (stereo not given) |  | inactive: -10.5%
6 | O=C(O)c1ccc(-c2cccnc2)cc1 | inconclusive: 143 µM [inhibitor, single point] | 
7 | CNC1CCCc2ccccc21 (stereo not given) |  | inactive: -22.1% [at 233 µM]
8 | CC(C)NC(=O)N1CCCC(c2nnc3n2CCNC3)C1 (stereo not given) | inconclusive: 0.0489 µM [inhibitor, full curve] | 
9 | Cc1cc(C(=O)NCC(F)(F)F)c2c(C3CCCN3)noc2n1 (stereo not given) |  | inconclusive: -49.6% [inhibitor] [at 146 µM]
10 | c1ccc(NCCN2CCCC2)cc1 |  | inactive: -6.97% [at 233 µM]
11 | CN1CC(=O)N(c2cccc(F)c2)Cc2c(NC3CCNCC3)ncnc21 |  | inactive: -19%
12 | COc1ccc(CN2CCCC23Cc2ccccc2CNC3=O)c(O)c1 (stereo not given) |  | inactive: -18.1% [at 146 µM]
13 | CN(C)c1ccc(CN2CCn3c(nnc3C3CCNCC3)C2)cc1 |  | inactive: -15.9%
14 | O=C1Nc2ccccc2C12CCN(Cc1cccc3ccccc13)C2 (stereo not given) | inconclusive: 54.8 µM [inhibitor, partial curve] | 
15 | Cc1ccccc1N(C)C1CN(C(=O)OC(C)(C)C)C1 |  | inactive: -3.04% [at 146 µM]

An excerpt from above in order of molecular weight, smallest number first.
Row | Compound | Potency | activity change, negative = inhibition
1 | CN1CC(=O)N(C2CCCC2)Cc2c(NC3CCNCC3)ncnc21 | inconclusive: 6.15 µM [inhibitor, full curve, poor fit] | 
3 | CN1CC(=O)N(C2CCCNC2)Cc2c(NCC(C)(C)C)ncnc21 (stereo not given) |  | inactive: -8.17%
11 | CN1CC(=O)N(c2cccc(F)c2)Cc2c(NC3CCNCC3)ncnc21 |  | inactive: -19%
